Source: PubChem BioAssay AID248 (DTP/NCI, 2004)
The list does not hold the whole screen: it gathers tests that were run many times, whatever their T/C, doses with no T/C, and many T/C values between a quarter and a half above the control. Other doses and runs of a compound stand elsewhere. T/C gives the treated animals as a percentage of the vehicle group. Some entries give survivors of the animals treated and no T/C: the source holds a T/C of zero for them, seemingly a mark for toxic or unscored doses. Some survivor counts are full or nearly so, which does not show that the dose was tolerated: the source hardly ever lists a survival T/C far under the control, and the zero likely stands for such cases as well. Survivors were counted at the toxicity check, usually on the fifth day, unless a day is given; later deaths do not show. Schedule codes are those of the source, taken here to give the interval after Q, in days (D) or hours (H), and the number of doses after X. Some schedule codes hold Z or #, which are not explained here. For survival time, the PubChem record calls one and a half times the control and up active, and a quarter to a half above the control has no call in these data; cut-offs in other NCI protocols can differ. Some doses were run more than once; their values stand side by side, smallest first. Some T/C values are followed by the survivors on the day toxicity was checked, most often the fifth; where none is given, no animal had died by that day.

Test system: L1210 leukemia ip in BDF1 mice, survival T/C
Assay: NCI In Vivo Anticancer Drug Screen. Data for tumor model L1210 Leukemia (intraperitoneal) in B6D2F1 (BDF1) mice
Conditions: T/C endpoint: mean survival time, higher T/C = longer survival
[1] = dose: 400.0 mg/kg/injection, schedule: Q01DX001 (ip), vehicle: acetone
[2] = dose: 100.0 mg/kg/injection, schedule: Q01DX009 (ip), vehicle: Klucel (hydroxypropylcellulose) (HPC)
[3] = dose: 200.0 mg/kg/injection, schedule: Q01DX001 (ip), vehicle: saline with Tween-80
[4] = dose: 400.0 mg/kg/injection, schedule: Q01DX001 (ip), vehicle: saline with Tween-80
[5] = dose: 200.0 mg/kg/injection, schedule: Q04DX003 (ip), vehicle: saline
[6] = dose: 400.0 mg/kg/injection, schedule: Q04DX003 (ip), vehicle: saline
[7] = dose: 200.0 mg/kg/injection, schedule: Q04DX002 (ip), vehicle: saline with Tween-80
[8] = dose: 200.0 mg/kg/injection, schedule: Q01DX009 (ip), vehicle: Klucel (hydroxypropylcellulose) (HPC)
[9] = dose: 400.0 mg/kg/injection, schedule: Q04DX003 (ip), vehicle: Klucel (hydroxypropylcellulose) (HPC)
[10] = dose: 200.0 mg/kg/injection, schedule: Q04DX003 (ip), vehicle: Klucel (hydroxypropylcellulose) (HPC)
[11] = dose: 400.0 mg/kg/injection, schedule: Q01DX009 (ip), vehicle: Klucel (hydroxypropylcellulose) (HPC)

With `O=P1(NCCCl)OCCC(OO)N1CCCl` (centres undefined) the T/C (dose: 25.0 mg/kg/injection, schedule: Q01DX001 (ip), vehicle: Klucel (hydroxypropylcellulose) (HPC)) was 148 % of control, the survivor count (dose: 100.0 mg/kg/injection, schedule: Q04DX002 (ip), vehicle: DMSO) was 3 of 3 and the survivor count (dose: 200.0 mg/kg/injection, schedule: Q04DX002 (ip), vehicle: DMSO) was 3 of 3. The survivor count (dose: 400.0 mg/kg/injection, schedule: Q04DX002 (ip), vehicle: DMSO) was 3 of 3 and the survivor count (dose: 800.0 mg/kg/injection, schedule: Q01DX001 (ip), vehicle: Klucel (hydroxypropylcellulose) (HPC)) was 0 of 6.

For `CCCCC(=O)N(CC)CC`, the survivor count [1] was 3 of 6.

With `CCCS(=O)[O-].CCCS(=O)[O-].[Zn+2]` the survivor count (dose: 150.0 mg/kg/injection, schedule: Q01DX001 (ip), vehicle: saline) was 0 of 6 and the survivor count (dose: 300.0 mg/kg/injection, schedule: Q01DX001 (ip), vehicle: saline) was 0 of 6.

`CSc1ccc(NC(=O)Nc2cc(Cl)c(Cl)cc2C)cc1` was tested, and the survivor count [2] was 6 of 6.

For `O=C(CCBr)NCNC(=O)CCBr`, the T/C (dose: 50.0 mg/kg/injection, schedule: Q01DX009 (ip), vehicle: saline) was 126 % of control, the T/C (dose: 180.0 mg/kg/injection, schedule: Q04DX003 (ip), vehicle: Klucel (hydroxypropylcellulose) (HPC)) was 148 % of control and the survivor count (dose: 200.0 mg/kg/injection, schedule: Q01DX009 (ip), vehicle: saline) was 3 of 6. For the same molecule, the survivor count (dose: 300.0 mg/kg/injection, schedule: Q01DX009 (ip), vehicle: saline) was 1 of 6 and the T/C (dose: 600.0 mg/kg/injection, schedule: Q04DX003 (ip), vehicle: Klucel (hydroxypropylcellulose) (HPC)) was 145 % of control.

For `NOCc1ccc(OCc2ccccc2)cc1`, the survivor count (dose: 400.0 mg/kg/injection, schedule: Q04DX003 (ip), vehicle: acetone) was 0 of 6.

For `C[C@@H](C[P+](c1ccccc1)(c1ccccc1)c1ccccc1)[C@](OC(=O)c1ccccc1)(C(=O)c1ccccc1)c1ccccc1`, the survivor count (dose: 100.0 mg/kg/injection, schedule: Q01DX001 (ip), vehicle: saline with Tween-80) was 0 of 6, the survivor count [3] was 0 of 6 and the survivor count [4] was 0 of 6.

In the case of `CCCCCCCCCCC(=O)N(CCC)CCC`, the survivor count (dose: 400.0 mg/kg/injection, schedule: Q01DX009 (ip), vehicle: carboxymethylcellulose (CMC)) is reported as 3 of 3.

In the case of `C=CCCCCCCCC[CH2][Sn]([Cl])([Cl])[Cl]`, the survivor count [5] is reported as 3 of 3.

In the case of `CN1CN(C)CN(C)C1`, the survivor count (dose: 25.0 mg/kg/injection, schedule: Q04DX003 (ip), vehicle: saline) is reported as 3 of 6, the survivor count [5] is reported as 2 of 6 and the survivor count [6] is reported as 0 of 6.

`O=C(O)c1cccc(Cl)c1F` was tested, and the T/C [7] was 129 % of control [2 of 3 alive] and the survivor count (dose: 400.0 mg/kg/injection, schedule: Q04DX002 (ip), vehicle: saline with Tween-80) was 0 of 3.

With `Nc1nc(N)c2nc3c(nc2n1)CN(c1ccc(C(=O)O)cc1)C3=O` the survivor count (dose: 400.0 mg/kg/injection, schedule: Q01DX009 (ip), vehicle: saline) was 1 of 6.

`O=C(O)C(Cc1ccccc1)NC(=O)C(F)(F)F` (centres undefined) was tested, and the survivor count (dose: 400.0 mg/kg/injection, schedule: Q04DX003 (ip), vehicle: other) was 0 of 6.

With `C1CCC2CC(NC3=NCCO3)CCC2C1` (centres undefined) the survivor count (dose: 1.56 mg/kg/injection, schedule: Q01DX009 (ip), vehicle: Klucel (hydroxypropylcellulose) (HPC)) was 0 of 6, the survivor count (dose: 3.12 mg/kg/injection, schedule: Q01DX009 (ip), vehicle: Klucel (hydroxypropylcellulose) (HPC)) was 0 of 6 and the survivor count (dose: 3.13 mg/kg/injection, schedule: Q01DX009 (ip), vehicle: Klucel (hydroxypropylcellulose) (HPC)) was 1 of 6. The survivor count (dose: 6.25 mg/kg/injection, schedule: Q01DX009 (ip), vehicle: Klucel (hydroxypropylcellulose) (HPC)) was 3 of 6, the survivor count (dose: 12.5 mg/kg/injection, schedule: Q01DX009 (ip), vehicle: Klucel (hydroxypropylcellulose) (HPC)) was 0 of 6 and the survivor count (dose: 25.0 mg/kg/injection, schedule: Q01DX009 (ip), vehicle: Klucel (hydroxypropylcellulose) (HPC)) was 1 of 6. For the same molecule, the survivor count (dose: 50.0 mg/kg/injection, schedule: Q01DX009 (ip), vehicle: Klucel (hydroxypropylcellulose) (HPC)) was 2 of 6 and the survivor count [2] was 1 of 6.

With `OCC1(CO)CC=CCC1` the survivor count [5] was 6 of 6 and the survivor count [6] was 6 of 6.

For `Cc1ccccc1CN1CCN(CCOC(c2ccccc2)c2ccccc2Cl)CC1` (centres undefined), the survivor count [2] was 3 of 6, the survivor count [8] was 1 of 6 and the survivor count [9] was 4 of 4.

With `CC1CN(C(C)C)C1` the survivor count [1] was 0 of 6.

`CC(C)(C)C1(C)CN(N=O)C(=O)O1` (centres undefined) was tested, and the survivor count (dose: 50.0 mg/kg/injection, schedule: Q04DX003 (ip), vehicle: Klucel (hydroxypropylcellulose) (HPC)) was 6 of 6, the survivor count (dose: 100.0 mg/kg/injection, schedule: Q04DX003 (ip), vehicle: Klucel (hydroxypropylcellulose) (HPC)) was 0 of 6 and the survivor count [10] was 0 of 6. The survivor count [9] was 0 of 6.

For `CCCCN(CCCC)CCCNC(=O)OCC`, the survivor count [8] was 0 of 6, the survivor count [10] was 0 of 6 and the survivor count [11] was 0 of 6. The survivor count [9] was 0 of 6.

With `CN(C)C1CCC(Nc2nc(Nc3cc(Cl)cc(Cl)c3)nc3ccccc23)CC1` (centres undefined) the survivor count [3] was 1 of 6 and the survivor count [4] was 0 of 6.

For `O=C1C=C(N2CC2)C(=O)C=C1N1CC1`, the T/C (dose: 5.0 mg/kg/injection, schedule: Q01DX001 (ip), vehicle: other) was 145 % of control, the survivor count (dose: 9.5 mg/kg/injection, schedule: Q01DX001 (ip), vehicle: other) was 6 of 6 and the survivor count (dose: 19.0 mg/kg/injection, schedule: Q01DX001 (ip), vehicle: other) was 3 of 6. For the same molecule, the survivor count (dose: 38.0 mg/kg/injection, schedule: Q01DX001 (ip), vehicle: other) was 0 of 6, the survivor count (dose: 75.0 mg/kg/injection, schedule: Q01DX001 (ip), vehicle: other) was 0 of 6 and the survivor count (dose: 150.0 mg/kg/injection, schedule: Q01DX001 (ip), vehicle: other) was 0 of 6. For the same molecule, the survivor count (dose: 300.0 mg/kg/injection, schedule: Q01DX001 (ip), vehicle: other) was 0 of 6.

`NC(=O)c1cccn1-c1cccc2c(-n3cccc3C(N)=O)cccc12` was tested, and the survivor count (dose: 100.0 mg/kg/injection, schedule: Q04DX002 (ip), vehicle: saline with Tween-80) was 2 of 3 and the survivor count [7] was 2 of 3.

With `O=C(C=C(C(F)(F)F)C(F)(F)F)c1ccc(F)cc1` the survivor count (dose: 50.0 mg/kg/injection, schedule: Q04DX003 (ip), vehicle: other) was 2 of 6 and the survivor count (dose: 100.0 mg/kg/injection, schedule: Q04DX003 (ip), vehicle: other) was 0 of 6.

With `CCCC(=O)NC(=S)Nc1ccccc1` the survivor count (dose: 150.0 mg/kg/injection, schedule: Q01DX001 (ip), vehicle: carboxymethylcellulose (CMC)) was 2 of 6 and the survivor count (dose: 300.0 mg/kg/injection, schedule: Q01DX001 (ip), vehicle: carboxymethylcellulose (CMC)) was 0 of 6.

With `CCN(C(=O)Nc1ccc(OC)cc1)c1ccccc1C` the survivor count [2] was 6 of 6.

`CC1(C)CN1CC1CO1` (centres undefined) was tested, and the T/C (dose: 11.0 mg/kg/injection, schedule: Q01DX Z (ip), vehicle: saline) was 126 and 129 % of control and the T/C (dose: 16.0 mg/kg/injection, schedule: Q01DX Z (ip), vehicle: saline) was 143 and 143 % of control [5 of 6 alive].

`CCc1c(C#N)oc2ccc(O)cc12` was tested, and the survivor count [11] was 6 of 6.

In the case of `O=C(Nc1cccc(C2=NCCN2)c1)c1ccc(N=Nc2ccc(C(=O)Nc3cccc(C4=NCCN4)c3)cc2)cc1`, the survivor count (dose: 372.0 mg/kg/injection, schedule: Q01DX Z (ip), vehicle: water) is reported as 4 of 6.
